Some entries share one result that the patent states for a list of compounds.
Each molecule was assayed against T1, Bcl-b (Homo sapiens, UniProt Q9HD36) (assay: Bclb/Bim fluorescence polarization assay (FPA)). Details: BIM BH3 peptide 5 nM, Bcl-b 40 nM, Ki calculated from FPA data.
T1 construct: without their C-terminal transmembrane domain; GST; made in house
T1 sequence (Q9HD36 1-182 limits assumed): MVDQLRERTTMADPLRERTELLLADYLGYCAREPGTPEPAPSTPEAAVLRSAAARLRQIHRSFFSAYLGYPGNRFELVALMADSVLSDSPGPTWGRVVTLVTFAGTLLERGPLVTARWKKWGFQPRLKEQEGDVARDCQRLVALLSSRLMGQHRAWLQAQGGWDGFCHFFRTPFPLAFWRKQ
Format: binding

Ki, ≤ 10 µM:
CC(C)CN(Cc1cccc(CN(Cc2ccc(-c3ccc(F)cc3)cc2)S(=O)(=O)c2cc(Cl)cc(Cl)c2O)c1)C(=O)N(C)c1cccc(Cl)c1Cl [Example 204, 3,5-Dichloro-N-(3-((3-(2,3-dichlorophenyl)-1-isobutyl-3-methylureido)methyl)benzyl)-N-((4′-fluorobiphenyl-4-yl)methyl)-2-hydroxybenzenesulfonamide]
CC(C)CN(Cc1cccc(CN(Cc2ccc(-c3ccc(F)cc3)cc2)S(=O)(=O)c2cc(Cl)cc(Cl)c2O)c1)C(=O)N(C)c1cc(F)ccc1F [Example 205, 3,5-Dichloro-N-(3-((3-(2,5-difluorophenyl)-1-isobutyl-3-methylureido)methyl)benzyl)-N-((4′-fluorobiphenyl-4-yl)methyl)-2-hydroxybenzenesulfonamide]
O=S(=O)(c1cc(Cl)cc(Cl)c1)N(Cc1ccc(F)cc1)Cc1ccccc1CN(Cc1ccc(F)cc1)S(=O)(=O)c1cc(Cl)cc(Cl)c1O [Example 206, 3,5-Dichloro-N-(2-((3,5-dichloro-N-(4-fluorobenzyl)phenylsulfonamido)-methyl)benzyl)-N-(4-fluorobenzyl)-2-hydroxybenzenesulfonamide]
O=C(NCc1ccccc1)c1cc(Cl)c(O)c(S(=O)(=O)N(Cc2ccc(F)cc2)Cc2cccc(-c3ccc(Cl)cc3)c2)c1 [Example 207, N-Benzyl-3-chloro-5-(N-((4′-chlorobiphenyl-3-yl)methyl)-N-(4-fluorobenzyl)sulfamoyl)-4-hydroxybenzamide]
O=C(Nc1ccccc1)c1cc(Cl)cc(S(=O)(=O)N(Cc2ccc(F)cc2)Cc2ccc(Oc3ccc(C(F)(F)F)cc3)cc2)c1O [Example 208, 5-Chloro-3-(N-(4-fluorobenzyl)-N-(4-(4-(trifluoromethyl)phenoxy)benzyl)sulfamoyl)-2-hydroxy-N-phenylbenzamide]
O=S(=O)(c1cc(Cl)cc(Cl)c1O)N(CCCCc1ccccc1)Cc1cccc(Oc2ccc(F)cc2)c1 [Example 209, 3,5-Dichloro-N-(3-(4-fluorophenoxy)benzyl)-2-hydroxy-N-(4-phenylbutyl)benzenesulfonamide]
O=C(Nc1ccccc1)c1cc(Cl)c(O)c(S(=O)(=O)N(Cc2ccc(F)cc2)Cc2cccc(-c3ccc(Cl)cc3)c2)c1 [Example 210, 3-Chloro-5-(N-((4′-chlorobiphenyl-3-yl)methyl)-N-(4-fluorobenzyl)-sulfamoyl)-4-hydroxy-N-phenylbenzamide]
CC(C)NC(=O)c1cc(Cl)c(O)c(S(=O)(=O)N(Cc2ccc(F)cc2)Cc2cccc(-c3ccc(Cl)cc3)c2)c1 [Example 211, 3-Chloro-5-(N-((4′-chlorobiphenyl-3-yl)methyl)-N-(4-fluorobenzyl)-sulfamoyl)-4-hydroxy-N-isopropylbenzamide]
NC(=O)c1cc(Cl)c(O)c(S(=O)(=O)N(Cc2ccc(F)cc2)Cc2cccc(-c3ccc(Cl)cc3)c2)c1 [Example 212, 3-Chloro-5-(N-((4′-chlorobiphenyl-3-yl)methyl)-N-(4-fluorobenzyl)-sulfamoyl)-4-hydroxybenzamide]
O=C(NCCCO)c1cc(Cl)c(O)c(S(=O)(=O)N(Cc2ccc(F)cc2)Cc2cccc(-c3ccc(Cl)cc3)c2)c1 [Example 213, 3-Chloro-5-(N-((4′-chlorobiphenyl-3-yl)methyl)-N-(4-fluorobenzyl)-sulfamoyl)-4-hydroxy-N-(3-hydroxypropyl)benzamide]
O=C(NCC(O)CO)c1cc(Cl)c(O)c(S(=O)(=O)N(Cc2ccc(F)cc2)Cc2cccc(-c3ccc(Cl)cc3)c2)c1 (centres unmarked) [Example 214, 3-Chloro-5-(N-((4′-chlorobiphenyl-3-yl)methyl)-N-(4-fluorobenzyl)-sulfamoyl)-N-(2,3-dihydroxypropyl)-4-hydroxybenzamide]
O=C(Nc1ccc(CCO)cc1)c1cc(Cl)c(O)c(S(=O)(=O)N(Cc2ccc(F)cc2)Cc2cccc(-c3ccc(Cl)cc3)c2)c1 [Example 215, 3-Chloro-5-(N-((4′-chlorobiphenyl-3-yl)methyl)-N-(4-fluorobenzyl)-sulfamoyl)-4-hydroxy-N-(4-(2-hydroxyethyl)phenyl)benzamide]
COC(=O)c1cc(Cl)c(O)c(S(=O)(=O)N(Cc2ccc(F)cc2)Cc2cccc(-c3ccc(Cl)cc3)c2)c1 [Example 216, Methyl 3-chloro-5-(N-((4′-chloro-biphenyl-3-yl)methyl)-N-(4-fluorobenzyl)sulfamoyl)-4-hydroxybenzoate]
Nc1ccc(CCOC(=O)c2cc(Cl)c(O)c(S(=O)(=O)N(Cc3ccc(F)cc3)Cc3cccc(-c4ccc(Cl)cc4)c3)c2)cc1 [Example 217, 4-Aminophenethyl 3-chloro-5-(N-((4′-chlorobiphenyl-3-yl)methyl)-N-(4-fluorobenzyl)sulfamoyl)-4-hydroxybenzoate]
COc1c(Cl)cc(CN(Cc2ccc(F)cc2)S(=O)(=O)c2cc(C(=O)NCc3ccccc3)cc(Cl)c2O)cc1-c1ccc(Cl)cc1 [Example 218, N-Benzyl-3-chloro-5-(N-((4′,5-dichloro-6-methoxybiphenyl-3-yl)methyl)-N-(4-fluorobenzyl)sulfamoyl)-4-hydroxybenzamide]
O=C(NCc1ccccc1)c1cc(Cl)c(O)c(S(=O)(=O)N(Cc2ccc(F)cc2)Cc2ccc(Oc3ccc(C(F)(F)F)cc3)cc2)c1 [Example 219, N-Benzyl-3-chloro-5-(N-(4-fluoro-benzyl)-N-(4-(4-(trifluoromethyl)-phenoxy)benzyl)sulfamoyl)-4-hydroxybenzamide]
COc1c(Cl)cc(CN(Cc2ccc(Oc3ccc(F)cc3)cc2)S(=O)(=O)c2cc(C(=O)NCc3ccccc3)cc(Cl)c2O)cc1-c1ccc(Cl)cc1 [Example 220, N-Benzyl-3-chloro-5-(N-((4′,5-dichloro-6-methoxybiphenyl-3-yl)methyl)-N-(4-(4-fluorophenoxy)benzyl)sulfamoyl)-4-hydroxybenzamide]
COc1c(Cl)cc(CN(Cc2ccc(Oc3ccc(C(F)(F)F)cc3)cc2)S(=O)(=O)c2cc(C(=O)NCc3ccccc3)cc(Cl)c2O)cc1-c1ccc(Cl)cc1 [Example 221, N-Benzyl-3-chloro-5-(N-((4′,5-dichloro-6-methoxybiphenyl-3-yl)methyl)-N-(4-(4-(trifluoromethyl)phenoxy)benzyl)-sulfamoyl)-4-hydroxybenzamide]
COc1c(Cl)cc(CN(CCn2ccc3ccccc32)S(=O)(=O)c2cc(C(=O)NCc3ccccc3)cc(Cl)c2O)cc1-c1ccc(Cl)cc1 [Example 222, 3-(N-(2-(1H-Indol-1-yl)ethyl)-N-((4′,5-dichloro-6-methoxybiphenyl-3-yl)methyl)sulfamoyl)-N-benzyl-5-chloro-4-hydroxybenzamide]
O=C(Nc1ccccc1)c1cc(Cl)cc(S(=O)(=O)N(Cc2ccc(F)cc2)Cc2cccc(-c3ccc(Cl)cc3)c2)c1O [Example 223, 5-Chloro-3-(N-((4′-chlorobiphenyl-3-yl)methyl)-N-(4-fluorobenzyl)-sulfamoyl)-2-hydroxy-N-phenylbenzamide]
O=C(NCc1ccccc1)c1cc(Cl)cc(S(=O)(=O)N(Cc2ccc(F)cc2)Cc2cccc(-c3ccc(Cl)cc3)c2)c1O [Example 224, N-Benzyl-5-chloro-3-(N-((4′-chlorobiphenyl-3-yl)methyl)-N-(4-fluorobenzyl)sulfamoyl)-2-hydroxybenzamide]
O=C(NCC(O)CO)c1cc(Cl)cc(S(=O)(=O)N(Cc2ccc(F)cc2)Cc2cccc(-c3ccc(Cl)cc3)c2)c1O (centres unmarked) [Example 225, 5-Chloro-3-(N-((4′-chlorobiphenyl-3-yl)methyl)-N-(4-fluorobenzyl)-sulfamoyl)-N-(2,3-dihydroxypropyl)-2-hydroxybenzamide]
COC(=O)c1cc(Cl)cc(S(=O)(=O)N(Cc2ccc(F)cc2)Cc2cccc(-c3ccc(Cl)cc3)c2)c1O [Example 226, Methyl 5-chloro-3-(N-((4′-chloro-biphenyl-3-yl)methyl)-N-(4-fluorobenzyl)sulfamoyl)-2-hydroxybenzoate]
O=C(Nc1cn[nH]c1)c1cc(Cl)cc(S(=O)(=O)N(Cc2ccc(F)cc2)Cc2cccc(-c3ccc(Cl)cc3)c2)c1O [Example 227, 5-Chloro-3-(N-((4′-chlorobiphenyl-3-yl)methyl)-N-(4-fluorobenzyl)-sulfamoyl)-2-hydroxy-N-(1H-pyrazol-4-yl)benzamide]
O=C(Nc1cccc2[nH]ccc12)c1cc(Cl)cc(S(=O)(=O)N(Cc2ccc(F)cc2)Cc2cccc(-c3ccc(Cl)cc3)c2)c1O [Example 228, 5-Chloro-3-(N-((4′-chlorobiphenyl-3-yl)-methyl)-N-(4-fluorobenzyl)-sulfamoyl)-2-hydroxy-N-(1H-indol-4-yl)benzamide]
O=C(NCCO)c1cc(Cl)cc(S(=O)(=O)N(Cc2ccc(F)cc2)Cc2cccc(-c3ccc(Cl)cc3)c2)c1O [Example 229, 5-Chloro-3-(N-((4′-chlorobiphenyl-3-yl)-methyl)-N-(4-fluorobenzyl)-sulfamoyl)-2-hydroxy-N-(2-hydroxyethyl)benzamide]
Nc1ccc(-c2cccc(CN(Cc3ccc(F)cc3)S(=O)(=O)c3cc(Cl)cc(Cl)c3O)c2)cc1 [Example 230, N-((4′-Aminobiphenyl-3-yl)methyl)-3,5-dichloro-N-(4-fluorobenzyl)-2-hydroxybenzenesulfonamide]
[N-]=[N+]=Nc1ccc(-c2cccc(CN(Cc3ccc(F)cc3)S(=O)(=O)c3cc(Cl)cc(Cl)c3O)c2)cc1 [Example 231, N-((4′-Azidobiphenyl-3-yl)methyl)-3,5-dichloro-N-(4-fluorobenzyl)-2-hydroxybenzenesulfonamide]
O=S(=O)(c1cc(Cl)cc(Cl)c1O)N(Cc1ccc(F)cc1)Cc1cccc(-c2ccc(Cl)cc2)c1 [Example 232, 3,5-Dichloro-N-((4′-chlorobiphenyl-3-yl)methyl)-N-(4-fluorobenzyl)-2-hydroxybenzenesulfonamide]

— patent publication US8501992B2, “Hydroxyphenyl sulfonamides as antiapoptotic bcl inhibitors” (Bristol-Myers Squibb Company, priority 2008, dated 2013)
